Drawing on PMC9476698, this text covers binding for one substance.

Sequences of proteins named here, by UniProt entry; tags and fusion partners are left off.
UniProt Q13838: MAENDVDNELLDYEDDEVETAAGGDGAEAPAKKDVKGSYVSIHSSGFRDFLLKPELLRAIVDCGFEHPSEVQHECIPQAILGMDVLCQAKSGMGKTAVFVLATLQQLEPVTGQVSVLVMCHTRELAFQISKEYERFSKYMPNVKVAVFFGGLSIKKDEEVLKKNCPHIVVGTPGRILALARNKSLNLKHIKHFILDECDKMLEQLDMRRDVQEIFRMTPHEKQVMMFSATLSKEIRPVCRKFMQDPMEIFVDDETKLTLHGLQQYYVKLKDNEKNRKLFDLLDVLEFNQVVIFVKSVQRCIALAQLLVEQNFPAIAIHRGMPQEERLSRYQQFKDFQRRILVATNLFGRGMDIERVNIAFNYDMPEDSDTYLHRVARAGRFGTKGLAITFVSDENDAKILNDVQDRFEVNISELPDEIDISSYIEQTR

Results are given in words; binding and its absence hold for the method and conditions named. Binding seen in cells or lysates may run through a third protein. Some results given as binding are weak or reduced against the parent protein; the word gives no strength.

This assay deals with T1, RETSAT (Retinol Saturase; all trans retinol 13,14 reductase) (human (endogenous in PANC-1)) (UniProt Q6NUM9).
T1 sequence: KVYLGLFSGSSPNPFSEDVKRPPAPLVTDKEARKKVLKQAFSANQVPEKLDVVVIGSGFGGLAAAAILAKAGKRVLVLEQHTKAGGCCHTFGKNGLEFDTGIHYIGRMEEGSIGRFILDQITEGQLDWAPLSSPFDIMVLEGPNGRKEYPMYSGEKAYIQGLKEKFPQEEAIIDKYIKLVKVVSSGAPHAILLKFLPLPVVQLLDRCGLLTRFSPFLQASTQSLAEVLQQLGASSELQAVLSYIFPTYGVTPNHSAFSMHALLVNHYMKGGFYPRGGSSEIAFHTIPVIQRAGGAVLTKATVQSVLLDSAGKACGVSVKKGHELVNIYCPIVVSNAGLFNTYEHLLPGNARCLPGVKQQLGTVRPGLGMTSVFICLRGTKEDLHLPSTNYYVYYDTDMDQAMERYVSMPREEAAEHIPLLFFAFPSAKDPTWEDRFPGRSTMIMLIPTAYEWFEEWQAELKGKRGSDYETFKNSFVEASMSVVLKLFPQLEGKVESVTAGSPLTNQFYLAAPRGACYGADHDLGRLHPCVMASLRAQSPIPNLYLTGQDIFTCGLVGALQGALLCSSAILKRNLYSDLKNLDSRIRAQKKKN
Briefly: co-IP; anti-RETSAT antibody overnight, protein A/G agarose; PANC-1 nuclear protein lysate in RIPA buffer, digested with 10 units/mL DNase I; isotype IgG as negative control; cells under vehicle, gemcitabine treatment or severe hypoxia; immunoblotting. In general terms: Immunoblotting shows a protein as a band on a membrane.

As to “DDX39B (also named as UAP56 or BAT1) (from UniProt Q13838 1-428)”, the binding result is listed as “binds”.
